Test results taken from PubChem BioAssay AID743255 (National Center for Advancing Translational Sciences (NCATS), 2014).
Hit rate of the full screen: of about 390,000 compounds, about 910 (0.23%) were called active. Inconclusive means that the source gave no clear call. Such entries were picked first, then a sample of the others. Calls come from the whole dose curve; as a rule, active = well fitted inhibition curve with a large enough effect; inconclusive = small, poorly fitted or top-dose-only effect; inactive = no such curve, though single readings can be large or run the other way. A potency beside an inconclusive call is a rough fit, not a confirmed value.

Protein sequences, listed by entry. Tags and fused reporters are not part of them. Lines headed by an entry give the natural chain unless they say otherwise; changes in a name come on top.
UniProt O94782: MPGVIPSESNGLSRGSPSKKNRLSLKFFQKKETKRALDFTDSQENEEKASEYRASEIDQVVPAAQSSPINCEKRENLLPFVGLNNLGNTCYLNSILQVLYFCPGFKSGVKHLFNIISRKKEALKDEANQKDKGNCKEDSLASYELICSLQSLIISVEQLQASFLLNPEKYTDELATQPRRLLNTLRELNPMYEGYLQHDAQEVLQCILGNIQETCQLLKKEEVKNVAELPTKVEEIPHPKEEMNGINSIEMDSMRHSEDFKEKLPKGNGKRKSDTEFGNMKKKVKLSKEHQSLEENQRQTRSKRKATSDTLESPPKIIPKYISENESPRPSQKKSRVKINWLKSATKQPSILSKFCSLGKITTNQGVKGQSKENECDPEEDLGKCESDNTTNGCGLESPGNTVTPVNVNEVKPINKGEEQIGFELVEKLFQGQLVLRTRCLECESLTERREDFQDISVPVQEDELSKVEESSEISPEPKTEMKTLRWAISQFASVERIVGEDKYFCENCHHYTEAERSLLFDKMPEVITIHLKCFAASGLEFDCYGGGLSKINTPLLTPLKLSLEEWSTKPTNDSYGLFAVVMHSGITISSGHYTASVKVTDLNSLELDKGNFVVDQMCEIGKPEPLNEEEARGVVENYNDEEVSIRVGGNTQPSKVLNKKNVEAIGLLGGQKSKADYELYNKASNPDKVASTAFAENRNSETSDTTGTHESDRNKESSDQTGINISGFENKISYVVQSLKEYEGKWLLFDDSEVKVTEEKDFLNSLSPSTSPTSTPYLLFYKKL

target: Ubiquitin carboxyl-terminal hydrolase 1 (Homo sapiens) (UniProt O94782); assay: Inhibitors of USP1/UAF1: Primary Screen; conditions: recombinant USP1/UAF1, Ub-Rhodamine cleavage fluorescence; activity change, negative = inhibition: at 57.1 µM (top of the series); note: nearly all actives have a fitted effect of over 60% in size
Outline: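 High-throughput fluorogenic screen: 1nM USP1/UAF1 complex, Ub-Rho substrate 150nM final, 50mM HEPES pH 7.8 with 0.5mM EDTA, 0.1 mg/ml BSA, 1mM TCEP and 0.01% Tween-20.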
% is set by controls: 0 for no effect and ±100 for the full control effect; potency is the fitted concentration of half-maximal effect.

Row | SMILES | Potency | activity change, negative = inhibition
1 | Nc1cccc(/C=C/c2ccncc2)c1 | inconclusive: 44.7 µM [inhibitor, partial curve, poor fit] | 
2 | CCSc1nc2cc(OC)c(OC)cc2c(=O)n1CCc1ccccc1 | inconclusive: 35.5 µM [inhibitor, partial curve] | 
3 | CN(c1ccccc1)S(=O)(=O)c1ccc(Cl)nc1 | inconclusive: 28.2 µM [inhibitor, partial curve] | 
4 | O=C(CCc1ccccc1)NNC(=O)Nc1ccc(Cl)cc1 |  | inactive: -12.2%
5 | CC(=O)Nc1ccc(NC(=O)C2CCCN2C(=O)NCc2ccccc2)cc1 (stereo unspecified) | inconclusive: 56.2 µM [inhibitor, partial curve, poor fit] | 
6 | CSc1nnc(Cn2c(=O)sc3ccccc32)n1-c1cccc(Cl)c1 |  | inactive: -11.1%
7 | COc1cc(C(=O)NNC(=O)CNC(=O)C2CCCCC2)ccc1OC(C)C | inconclusive: 50.1 µM [inhibitor, partial curve, poor fit] | 
8 | Cc1ccc(NS(=O)(=O)c2ccc3[nH]c4c(c3c2)CCCC4)cc1N(C)C | inconclusive: 0.794 µM [inhibitor, full curve, poor fit] | 
9 | CC(C)CC(COCc1cccc(C(F)(F)F)c1)N1CCN(C(=O)c2cccc(C(F)(F)F)c2)CCC1=O (stereo unspecified) | inconclusive: 7.94 µM [inhibitor, partial curve] | 
10 | CCCNC(=O)CN1CCN(c2cc3ccccc3c(Cl)n2)CC1 | inconclusive: 44.7 µM [inhibitor, partial curve, poor fit] | 
11 | O=C(Nc1ccc(-n2nncc2-c2ccco2)cc1)c1cc2ccccc2oc1=O |  | inactive: -15.4%
12 | CCOC(=O)C1C(=O)CC(C)(O)C(C(=O)OCC)C1c1ccc(F)cc1 (stereo unspecified) |  | inactive: -12.6%
13 | O=C(O)c1ccc(N=N/C(=N\Nc2ccc(C(=O)O)cc2)c2ccccc2)cc1 | inconclusive: 63.1 µM [inhibitor, partial curve, poor fit] | 
14 | COc1ccc(C2CC(c3cccs3)=NN2C(=S)Nc2ccccc2)cc1OC (stereo unspecified) |  | inactive: -9.11%
15 | Cc1ccc2cc(C(c3nnnn3Cc3ccccc3)N3CCc4ccccc43)c(=O)[nH]c2c1 (stereo unspecified) |  | inactive: -24.9%
16 | CS(=O)(=O)N1CCCC(C(=O)N2CCOCC2)C1 (stereo unspecified) | inconclusive: 3.16 µM [inhibitor, partial curve] | 
17 | Oc1[nH]c2ccccc2c1N=Nc1ccc(F)cc1 | inconclusive: 3.16 µM [inhibitor, full curve, poor fit] | 
18 | O=C(c1cc2cc(F)ccc2[nH]1)N1CCN(c2cccc(Cl)c2)CC1 | inconclusive: 50.1 µM [inhibitor, partial curve, poor fit] | 
19 | O=c1c2ccccc2n(Cc2cccc(Cl)c2)c(=O)n1Cc1ccccc1 | inconclusive: 39.8 µM [inhibitor, partial curve, poor fit] | 
20 | CN1CCN(C(CNC(=O)c2c(F)cccc2F)c2ccc3c(c2)OCO3)CC1 (stereo unspecified) |  | inactive: -3.21%
21 | NC(=O)[C@@H]1CCCCNc2c(I)cc([N+](=O)[O-])cc2C(=O)N[C@@H](CCC(=O)O)C(=O)N[C@@H](CO)C(=O)N1 | inconclusive: 44.7 µM [inhibitor, partial curve, poor fit] | 

Some of these compounds in order of length of the SMILES, ascending.
Row | SMILES | Potency | activity change, negative = inhibition
5 | CC(=O)Nc1ccc(NC(=O)C2CCCN2C(=O)NCc2ccccc2)cc1 (stereo unspecified) | inconclusive: 56.2 µM [inhibitor, partial curve, poor fit] | 
11 | O=C(Nc1ccc(-n2nncc2-c2ccco2)cc1)c1cc2ccccc2oc1=O |  | inactive: -15.4%
21 | NC(=O)[C@@H]1CCCCNc2c(I)cc([N+](=O)[O-])cc2C(=O)N[C@@H](CCC(=O)O)C(=O)N[C@@H](CO)C(=O)N1 | inconclusive: 44.7 µM [inhibitor, partial curve, poor fit] | 

(cont.)

Row | SMILES | Potency | activity change, negative = inhibition
22 | Clc1ccc(Cn2cnc3ccccc32)cc1 | inconclusive: 50.1 µM [inhibitor, partial curve, poor fit] | 
23 | C[C@H](CO)N1C[C@H](C)[C@@H](CN(C)C)Oc2c(NS(=O)(=O)c3cn(C)cn3)cccc2C1=O | inconclusive: 31.6 µM [inhibitor, partial curve, poor fit] | 
24 | CC(=O)Nc1nc2c(s1)C(=O)NCCC2 | inconclusive: 5.01 µM [inhibitor, partial curve] | 
25 | CN1CCN(c2ccc(Cl)cc2NS(=O)(=O)c2ccccc2Cl)CC1 |  | inactive: -19.7%
26 | Cc1ccc(NC(=O)CSc2nc3[nH]ncc3c(=O)[nH]2)c(C)c1 | inconclusive: 5.01 µM [inhibitor, partial curve] | 
27 | CCS(=O)(=O)N1CCc2cc(C(=O)NCc3ccccc3Cl)ccc21 |  | inactive: -10.1%
28 | Cc1ccc(SCCCCN2CCNCC2)cc1 |  | inactive: -16%
29 | COc1ccccc1NC(=O)c1sc2nc(C)c(C(=O)Nc3ccc(C)cc3C)c(-c3ccccc3Cl)c2c1N | inconclusive: 39.8 µM [inhibitor, partial curve, poor fit] | 
30 | CN(C)CCC(c1ccccc1)c1ccccn1 (stereo unspecified) | inconclusive: 31.6 µM [inhibitor, single point] | 
31 | CCOC(=O)C(=Cc1cc(=O)c(OC)co1)C(=O)OCC |  | inactive: -16.1%
32 | CN1C(C(=O)N2CCc3ccccc3C2)=CC(c2ccc(F)cc2)=NS1(=O)=O | inconclusive: 35.5 µM [inhibitor, partial curve, poor fit] | 
33 | O=c1[nH]c(=S)[nH]c2c1C(c1ccc(Br)cc1)c1c([nH]c(=S)[nH]c1=O)O2 | inconclusive: 44.7 µM [inhibitor, partial curve, poor fit] | 
34 | CCc1cccc(C)c1NC(=O)CCS(=O)(=O)c1ccc2c(c1)oc(=O)n2C | inconclusive: 12.6 µM [inhibitor, partial curve, poor fit] | 
35 | CC(=O)c1cccc(NC(=O)C=C(C)C)c1 | inconclusive: 0.355 µM [inhibitor, full curve, poor fit] | 
36 | O=S(=O)(c1ccccc1)N1CCN(CC(O)COc2ccc3c(c2)CCC3)CC1 (stereo unspecified) | inconclusive: 5.62 µM [inhibitor, partial curve, poor fit] | 
37 | CCOC(=O)C1=C(c2ccccc2)c2ccccc2OC1C(=O)OCC (stereo unspecified) | inconclusive: 79.4 µM [inhibitor, partial curve, poor fit] | 
38 | COC(=O)C1=C(C)N(c2cc(C)cc(C)c2)/C(=C/c2ccc(O)cc2)C1=O | inconclusive: 2.24 µM [inhibitor, full curve, poor fit] | 
39 | COc1ccc(OC)c(NC(=O)CSc2ncnc3sc(C)cc23)c1 | inconclusive: 44.7 µM [inhibitor, partial curve] | 
40 | CC(C)CC1=C/C(=C/c2ccc(-c3ccccc3)o2)C(=O)O1 | inconclusive: 31.6 µM [inhibitor, single point] | 
41 | CNC(=O)c1ccc(CN(C)C(=O)c2cccc(S(=O)(=O)N3CCc4ccccc4C3)c2)cc1 | inconclusive: 0.112 µM [inhibitor, full curve, poor fit] | 
